For test [1], the target named is T1, GFP-tagged PAICS (phosphoribosylaminoimidazole carboxylase, phosphoribosylaminoimidazole succinocarboxamide synthetase) (UniProt P22234).
T1 sequence: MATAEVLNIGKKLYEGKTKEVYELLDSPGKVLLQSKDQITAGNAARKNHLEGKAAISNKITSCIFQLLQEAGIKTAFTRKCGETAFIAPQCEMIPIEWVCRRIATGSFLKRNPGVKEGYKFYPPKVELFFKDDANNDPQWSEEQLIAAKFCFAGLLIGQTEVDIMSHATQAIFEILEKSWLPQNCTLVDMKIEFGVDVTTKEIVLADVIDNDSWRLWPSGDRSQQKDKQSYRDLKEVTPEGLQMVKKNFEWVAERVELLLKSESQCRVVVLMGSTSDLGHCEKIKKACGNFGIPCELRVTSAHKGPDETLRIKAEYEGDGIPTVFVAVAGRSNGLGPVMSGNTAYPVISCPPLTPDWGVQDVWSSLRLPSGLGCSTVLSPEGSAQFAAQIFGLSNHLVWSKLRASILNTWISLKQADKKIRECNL
Nature of the test: co-IP; HEK293T cells transfected with GFP-vector or GFP-PAICS, with or without CDDP (10 µg/mL for 12 h, 2-h recovery); NETN buffer (20 mM Tris-HCl pH 8.0, 0.5% Nonidet P-40, 200 mM NaCl, 1 mM EDTA); anti-GFP IP, blot with anti-HDAC1 and anti-HDAC2.

Chains of the proteins cited; added tags and fusions are not shown.
UniProt Q13547: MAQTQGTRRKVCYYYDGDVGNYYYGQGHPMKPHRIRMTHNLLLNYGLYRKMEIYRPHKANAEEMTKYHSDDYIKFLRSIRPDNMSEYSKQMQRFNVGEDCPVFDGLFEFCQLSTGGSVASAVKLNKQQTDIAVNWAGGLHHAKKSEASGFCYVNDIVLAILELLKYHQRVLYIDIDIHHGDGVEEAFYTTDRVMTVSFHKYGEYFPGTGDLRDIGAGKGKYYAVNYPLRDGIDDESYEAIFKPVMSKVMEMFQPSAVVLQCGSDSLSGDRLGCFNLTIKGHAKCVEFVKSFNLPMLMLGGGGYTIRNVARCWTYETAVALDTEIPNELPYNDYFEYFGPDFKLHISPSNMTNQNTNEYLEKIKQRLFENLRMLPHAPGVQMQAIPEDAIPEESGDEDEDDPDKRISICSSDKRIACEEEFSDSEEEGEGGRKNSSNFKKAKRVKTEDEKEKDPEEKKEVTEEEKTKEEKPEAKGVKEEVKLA
UniProt Q92769: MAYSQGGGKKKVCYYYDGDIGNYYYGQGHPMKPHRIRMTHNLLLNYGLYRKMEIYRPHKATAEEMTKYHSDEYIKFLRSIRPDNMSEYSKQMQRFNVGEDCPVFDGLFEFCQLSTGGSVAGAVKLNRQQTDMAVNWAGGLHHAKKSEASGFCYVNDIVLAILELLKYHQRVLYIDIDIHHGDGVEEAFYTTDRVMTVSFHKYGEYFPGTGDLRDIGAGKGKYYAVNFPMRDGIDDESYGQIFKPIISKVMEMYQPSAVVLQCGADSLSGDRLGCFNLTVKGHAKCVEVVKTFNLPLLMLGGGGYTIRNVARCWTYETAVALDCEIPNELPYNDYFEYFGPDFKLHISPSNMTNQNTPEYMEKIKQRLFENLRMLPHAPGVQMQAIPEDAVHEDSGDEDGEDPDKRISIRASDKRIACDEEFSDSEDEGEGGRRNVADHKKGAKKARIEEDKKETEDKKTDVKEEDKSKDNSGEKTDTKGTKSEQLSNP

The target in test [2] is T1, GFP-tagged PAICS (phosphoribosylaminoimidazole carboxylase, phosphoribosylaminoimidazole succinocarboxamide synthetase). Nature of the test: co-IP; HEK293T cells co-transfected with Flag-vector/GFP-vector or Flag-HDAC1/GFP-PAICS, with or without CDDP (10 µg/mL for 12 h, 2-h recovery); NETN buffer; anti-GFP IP, blot with anti-GFP and anti-Flag.
Test [3] deals with HDAC1, endogenous in SGC-7901 cells (human (endogenous in SGC-7901)) (UniProt Q13547). Nature of the test: co-IP; endogenous proteins of SGC-7901 cells, with or without CDDP (10 µg/mL for 12 h, 2-h recovery); NETN buffer; IP with anti-HDAC1 or anti-HDAC2, blot with anti-PAICS, anti-HDAC1 or anti-HDAC2.
In test [4] the target is HDAC2, endogenous in SGC-7901 cells (human (endogenous in SGC-7901)) (UniProt Q92769). The test is described as above.

No constants are given. Whether binding was seen depends on the method and setting. In cells and extracts the contact can be indirect. Some results given as binding are weak or reduced against the parent protein; the word gives no strength. For some assays here: Tags and fused reporters may be left off the sequences shown.

On to “histone deacetylase HDAC1, endogenous in HEK293T cells (from UniProt Q13547 1-482) (enzyme)”, for which the binding entry in test [1] is reported as “binds”.

As to “histone deacetylase HDAC2, endogenous in HEK293T cells (from UniProt Q92769 1-488) (enzyme)”, the binding result in test [1] was “binds”.

For “Flag-tagged HDAC1 (from UniProt Q13547 1-482) (enzyme)”, in test [2], the binding result is “binds”.

B1: PAICS, endogenous in SGC-7901 cells (enzyme, UniProt P22234 1-425)
chain: T1 sequence
On to B1, for which the binding result in test [3] and in test [4] was “binds” each time.

For the origin of these results see paper PMC7338359.
